Source: paper PMC7190567
These are yes or no findings as the source states them, for the method shown. In cells and extracts the contact can be indirect. These calls come from enrichment with a bait or labelling near it, and not all partners need be listed.

T1: Caveolin-1 (wild type) (dog) (UniProt P33724)
T1 sequence: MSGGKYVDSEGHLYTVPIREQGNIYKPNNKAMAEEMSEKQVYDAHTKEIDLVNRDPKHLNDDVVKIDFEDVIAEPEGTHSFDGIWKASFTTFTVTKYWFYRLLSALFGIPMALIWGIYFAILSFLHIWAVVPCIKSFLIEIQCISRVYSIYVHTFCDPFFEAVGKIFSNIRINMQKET

B1: Matrilin-3 (protein, UniProt O35701 28-481)
chain: APGRLARASVRRLGTRVPGGSPGHLSALATSTRAPYSGGRGAGVCKSRPLDLVFIIDSSRSVRPLEFTKVKTFVSRIIDTLDIGATDTRVAVVNYASTVKIEFQLNTYSDKQALKQAVARITPLSTGTMSGLAIQTAMEEAFTVEAGARGPMSNIPKVAIIVTDGRPQDQVNEVAARARASGIELYAVGVDRADMESLKMMASKPLEEHVFYVETYGVIEKLSARFQETFCALDQCMLGTHQCQHVCVSDGDGKHHCECSQGYTLNADGKTCSAIDKCALSTHGCEQICVNDRNGSYHCECYGGYALNADRRTCAALDKCASGTHGCQHICVNDGAGSHHCECFEGYTLNADKKTCSVRNKCALGTHGCQHICVSDGAVAYHCDCFPGYTLNDDKKTCSDIEEARSLISIEDACGCGATLAFQEKVSSHLQKLNTKLDNILKKLKVTEYGQVHR
B2: RNA-binding protein 48 (protein, UniProt Q8K2X2 1-371)
chain: MASSDGKPGGVFDHHVQTAVCDSRAKYREGRRPRAVKVYTINLESQYLLIQGVPAVGAMKELVERFALYGAIEQYNALDEYPAEDFTEVYLIKFVKLQSARVAKKKMDEQSFFGGLLHVCYAPEFETVEETRKKLQERKAYITRVTKNQDCYMAKKKPVPEQKGTKDSRQGFHPPMPGFGTAALNTSPESPPENSSSCLPYSCEFPLSCFASKSTCSRGEHVDRVSDSCNSARNHGELSRHRDHSAFSPKLQMNTYKNSVPCSSVQEAIATSQAVGRFMPRTTQLQERKRRRDCDRELGTLLETHTSSNEVLIGPKLPGIPTVDLQDDSLNTTATLIRRKLKEVISSVPKPPEDNIKDVCTSHPGKQRRRI
B3: Protein spindly (protein, UniProt Q923A2 1-608)
chain: MEADITNLRNKLKECEDERLKAAHYGLQLLERQTELQSQLDKCHEEMMITAEKYNQEKHALQREVELKSRMLDSLSCECEALKQQQKAQLEQLEVQLHRSHRQEVSDLKNKLENLKVELDEARLGEKQLKQKLDLQGELLAHKSEELRLLSEQRVLSSMSSELLALETELTAAEGVKNALKEEVNELQYKQEQLECLNTSLLHQVDRLKEEKEEREREAVSYYNALEKARVENQDLQVQLGHALQQAADPNSKGNSLFAEVEDRRVAMERQLNLMKDKYQSLKKQNAFTRDQMNKMKLQISTLLRMRGSQTEFEQQERLFAMIEQKNGEIKHLLGEINKLEKFKNLYESMESRPSTSDTACVLEDSTYYSDLLQLKLDKLNKENESTKDELSIQRMKALFESQRALDIERKLFTNERHLQLSESENMKLRAKLDELKLKYEPEERIEVPVLKRRREVLPLNITTPEETEETAAASATEDGVSRLPPHREEESCLNSLKDNTVQWKQPASSCVQPASLSPHKNLHLDTQPKKEKKCVKLVDSPANIEVLHEQSGNTPNSPRLTAESKLPTEVKERIETTSKLGKGACKKSHNIIYVSSKSAPETQCSQQ
B4: Cyclin B3 (protein, UniProt Q810T2 1-1396)
chain: MPPPLLPKRSKLETEKAQSNKITPREEQQSEKIGKSNHAASSSSSSTQGAVKRRSVFEDVTNASHSQCVQSKEDNIELKSHVSKRTKKGVGEVTQKKIKSSKMGHVTSLSNMEKEFILDIPNKPKTLTTEEPSVFQKTLVLNEEPATKETCLMRKTLKSCAFHQETLLMEKPLTLLVETEDYNEFDTELMTSKKKDKPEDPTIIEEMTDLKKSVIRKVTLTSSPLWLKNKHVVQEEKPVIQEKSSFKRISLVSNVVTTKEKPPVKKPHFRKKKPTTEMKSLLQEPSLEEKYNTQEDASILKKPQVLQENTNNKDATLTEPVTFKGKHSANEATHTKKPSSSKNNPDPQGKGTNLRPLRVHPVTYENEPMSSKKSTTKKKDSHFHGPSVLPDKHSPQMEVSTVKKSLALPNPTTEEKMLHFPVATVLEKQHNMGEAPCLKKPSPLRKQQQLPKRRRFFSNSAVQETVIRKPLFFKMSTTEKDPPSQWPSALPKKHISPGELSKQKKQHVSPKHNMEEDSQCWLDSAFKKQLSREEPASTHTPLKLEMQQAITKETGFHLRNPLVLPTVTSEAKSLTKEPPSFREQNTSLLKRKSTTHTITLQQAQSEWQEMTDEDRNLFSIKPGSHRKEPIPEFLQNPLPPNENCLISQKLSHSMPFASQKTTSQERAHRKESVASNDDKNFFSQDLFSPFSSADEDTLKFHKSLDFQEQVDRKNDSHKKMFDSQDSVSEEESFLRKLFCKDRCSSTEELSQERTVALEQEFLLIKILNENTSSDVDEPLSHQSPHIQNHSDTTKEALEASEALEAPEALETLEALVASEDLEEPLNILEELSTENMVALMKMLVTEDESTKDSFSGNYTAAREAHAEKSLSLEETSINEAATLKESLSSQEKHRAELVTVLKELLVLMKNPSLKRVALAFQENPSNNVETLLREVLALVENSTADESTLQEKPSTKTDVTPKELLALEENSSNKKANPMDSLSFDHKPDTEMGEIARMVLTDEEYNIDTLYERVLALSQGLIAADQLSFTDLQNFEETKIVDEEEFFKSFLVFENKNSPNMSSNAFESRTDNSSAIMPSSKAFNPVENSNPYVSSSKSFKSTLGAKETEITIQDDSDSLERIEKEGQDPLLNTIYAKDVFNYLKEREEKFLVQKYMDGQMELTSDMRAILVDWLVEIQGSFQMTHETLYLAVKIMDLYLMKAQCKKNHLQLLGSTTYMIAAKFEESYPPSLSEFLFICEDMYEKSDMVSLESSILQTLNFDINIPTAYNFLRRYASCIHASMKTLTLSRFICEMTLQEYEYIEERPSKLAAASFILALYMRNLSNCVPTLEYFTGYKMAELHILVRKLNHLLNFRSHSILKNVFEKYSEETYFEVAKIPPLSKQDLENLLNCALFH
B5: MLX-interacting protein (protein, UniProt Q2VPU4 1-917)
chain: MAADVFMCSPRRPRSRGRSVLLKPQVPEDDDDSDTDEPSPPPPSGVATSARAHASAAPLPPRAGPGREEPPRRQQIIHSGHFMVSSPHREHPPKKGYDFDTVNKQTCQTYSFGKTSSCHLSIDASLTKLFECMTLAYSGKLVSPKWKNFKGLKLQWRDKIRLNNAIWRAWYMQYLEKRRNPVCHFVTPLDGSVDVDEHRRPEAITTEGKYWKSRIEIVIREYHKWRTYFKKRLQQHKDEDLSSLAQDDDMLYWHKHGDGWKTPVPMEEDSLLDTDMLMSEFSDTLFSTLSSHQPVAWPNPREIAHLGNADMIQPGLIPLQPNLDFMDTFEPFQDLFSSSRSIFGSMLPPPSSLPAADPSSPPSQGNILPNTALPPASLPNSLITSSAAPSLDPTEGQGCERTSQTVDPFIQPADFGPSEPPLSVPQPFLPVFTMTLLSPGPAPAPVPTALPLVPSPAPTLNPPTPPAFLQPQKFAGVSKSTPVITHTASATLTHDASATTFSQNQGLVITAHHPTPSSSPCALALSPVPQPPAVGPPQPHLTFIHPKPVSLTGVRHKQPPKIVPAPKPEPVSLVLKNACIAPAAFSGQPQKVIMTSAPLKREGILASTVSPSNVVIASAAITRASGVTEFLSHSTSSQPSPVSRLFSPSTVQDSLVKGEQVSLHGGSPQVPATGSSRDCPNSGQASPCPSEQSPSPQSPQNNCSGKSTDPKNVAALKNRQKHISAEQKRRFNIRMGFNTLNSLISNNSKQTSHAITLQKTMEYITKLQQERMQMQEEARRLREEIEELNTTIISCQQLLPATGVPVNCRQLDHMRDMFDEYVKSRTLQNWKFWIFSMIIKPLFESFKGMVSTSSLEEFHRTALSWLDQHCSLPVLRPMVLSTLRQLSTTTSILTDPSQLPEQASEAVTRMGKRSGES
B6: S1 RNA-binding domain-containing protein 1 (protein, UniProt Q497V5 1-982)
chain: MPSLRKRVKIQAENAEPKDECSFFSELSSGSEEDNKEDSIWEPQKKVPRNRRQPASKGSKRKQGPRAKKSSQQVDDESKDVAVKEELNSPVAIVDADLEEKSHKLQTTKTLKTAAKKQKKPVPRAKKRLKVDEETSQASPLEGGGSNVETPSTSACGNVCKKEESEDSFTFGQSPVKRIRTESCPQGRPARVPDGVSDIKEEVEMNWDVVQVLSERTNIEPWVCANIIRLFNDDNTIPFIVRYRKELINNLDADFLREVRQTLDELRDVAKKVHSRIQKIKKEGKMSECLLQALLNCKTFEELEHVSAPYKMGSKGTKAQRAKQLGLEGAAWTLLENPGQLNLLSYIKPDVKGLSELNDIETGVQHILADMIAKDKDTLDFIRGLCKHRYICIQSSLAKVSSKKVNEKEVDKFQLYQNFSCNIRTIHHHQILAINRGENLKILTVKVNISDGVKNEFCRWCIQNRWRPRGFARPELMKILHNSLDDSFKRLIVPLLCREFRAKLTSDAEKQSVMMFGQNLRQLLLTSPVPGRTLMGVDPGYKHGCKLAIISPTSQILHTDVVYLHCGQGFREAEKIKRLLLHFNCRTVVIGNGTACRETEAYFADLIMKNYFAPLDVVYCIVSEAGASIYSVSPEANKEMPGLDPNLRSAVSIARRVQDPLAELVKFDPKHIGVGMYQHDVSQTLLKATLDSVVEECVSFVGVDINICSEVLLRHIAGLNANRAKNIIEWREKNGPFINREQLKKVKGLGPKSFQQCAGFVRINQDYIRTFCSSQHTDSSGQSQETAMVTNEKLGKKKNKADATLIPNPLDQTCIHPESYDIAVRFLSFIGGTMCEIGKPEMQQKINVSLGKEGIEETAERLQTTVHTLQVIIDGLSQPKTFDIRTDFDKPDFKRSIVCLEDLQVGTVLTGKVENATLFGVFVDIGVGKAGLIPIRFITEAKLSKTKRRRSLGLGPGEKVEVKVLNVDIPRSRISLDLLRVL
B7: NAD(P) transhydrogenase, mitochondrial (protein, UniProt Q61941 44-1086)
chain: CKSPVKPGIPYKQLTVGVPKEIFQNEKRVALSPAGVQALVKQGFNVVVESGAGEASKFPDDLYRAAGAQIQGMKEVLASDLVVKVRAPMVNPTLGAHEADFLKPSGTLISFIYPAQNPDLLNKLSERKTTVLAMDQVPRVTIAQGYDALSSMANISGYKAVVLAANHFGRFFTGQITAAGKVPPAKILIVGGGVAGLASAGAAKSMGAVVRGFDTRAAALEQFKSLGAEPLEVDLKESGEGQGGYAKEMSKEFIEAEMKLFAQQCKEVDILISTALIPGKKAPVLFSKEMIESMKEGSVVVDLAAEAGGNFETTKPGELYVHKGITHIGYTDLPSRMATQASTLYSNNITKLLKAISPDKDNFHFEVKDDFDFGTMSHVIRGTVVMKDGKVIFPAPTPKNIPEEAPVKPKTVAELEAEKAGTVSMYTKTLTTASVYSAGLTGMLGLGIVAPNVAFSQMVTTFGLAGIIGYHTVWGVTPALHSPLMSVTNAISGLTAVGGLALMGGHFYPSTTSQSLAALATFISSVNIAGGFLVTQRMLDMFKRPTDPPEYNYLYLLPGGTFVGGYLAALYGGYNIEEIMYLGSGLCCVGALGGLSTQGTARLGNALGMIGVAGGLAATLGGLKPDPQLLAQMSGAMAMGGTIGLTIAKRIQISDLPQLVAAFHSLVGLAAVLTCMAEYIVEYPHFAMDATSNFTKIVAYLGTYIGGVTFSGSLVAYGKLQGILKSAPLLLPGRHALNAGLLAASVGGIIPFMADPSFTTGITCLGSVSGLSTLMGVTLTAAIGGADMPVVITVLNSYSGWALCAEGFLLNNNLLTIVGALIGSSGAILSYIMCVAMNRSLANVILGGYGTTSTAGGKPMEISGTHTEINLDNAVEMIREANSIVITPGYGLCAAKAQYPIADLVKMLTEQGKKVRFGIHPVAGRMPGQLNVLLAEAGVPYDIVLEMDEINSDFPDTDLVLVIGANDTVNSAAQEDPNSIIAGMPVLEVWKSKQVIVMKRSLGVGYAAVDNPIFYKPNTAMLLGDAKKTCDALQAKVRESYQK

target: T1, Caveolin-1 (wild type) (dog); assay: affinity purification with mass spectrometry; CAV1 immunoprecipitated with polyclonal anti-CAV1 on Dynabeads from B16F10(CAV1-E-cadherin) cells; trypsin digest, nano-ESI-MS/MS on an LTQ ion trap, Mascot; only proteins unique to this sample listed

binding | Binder
binds | B1
binds | B2
binds | B3
binds | B4
binds | B5
binds | B6
binds | B7
